# Assay results from the supplement of paper PMC5407854, “Inhibitor of ppGalNAc-T3-mediated O-glycosylation blocks cancer cell invasiveness and lowers FGF23 levels” (eLife, 2017).
# The other results are listed elsewhere or left out. Most entries show no effect beyond the scatter of the controls.
# Tested on: ppGalNAc-T3 sensor
# Experiment: T3 sensor activation Q score (MG/GFP ratio z-score vs DMSO controls) (SD units); higher = more sensor activation (inhibition of ppGalNAc-T3 glycosylation)
# Settings: HEK293 sensor cells; 10 µM; 6 h
# Procedure: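 Cells were treated with compound at 10 uM for 6 h, then MG/GFP ratio was read by flow cytometry (10,000 cells per well, duplicate wells). Q = (R - R_neg)/SD_neg relative to DMSO vehicle controls; the signal rises when the glycosyltransferase is inhibited.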
row,Structure (SMILES),T3 sensor activation Q score
1,COc1ccc(CN2CCN(c3cccc(C)c3C)CC2)c(OC)c1,0.185
2,CN1CCCN(Cc2ccccc2F)CC1,1.1
3,CCCCNC(=O)c1ccc(Cl)cc1,-0.415
4,CCCNC(=O)Nc1ccc(C(=O)O)cc1,0.68
5,Cc1cccc(CN2CCN(c3ccccn3)CC2)c1,-0.245
6,CCOC(=O)N1CCN(Cc2cc(C)ccc2C)CC1,0.035
7,Nc1ccc2oc(-c3ccc(Cl)cc3)nc2c1,0.6
8,Cc1onc(-c2ccccc2Cl)c1C(=O)N1CC(C)OC(C)C1 (stereo not given),0.36
9,COc1ccccc1NC1=CC(=O)CC(C)(C)C1,-0.44
10,O=C(Nc1ccccc1F)c1ccco1,-0.08
11,CC1CN(CCC(C)c2ccccc2)CC(C)O1 (stereo not given),0.565
12,COCc1nc2c(c(=O)[nH]1)C1(CCCCC1)Cc1ccccc1-2,0.58
13,O=C(O)c1cccc(S(=O)(=O)N2CCCCCC2)c1,-0.325
14,CCOc1ccc(N2C(=O)CC(SCC(=O)Nc3ccc(F)cc3)C2=O)cc1 (stereo not given),-0.21
15,CCCc1cc2ccccc2o1,0.1
16,CC1CCC(NCCN2CCOCC2)CC1 (stereo not given),-0.825
17,COc1cc(CN2CCN(C/C=C/c3ccccc3)CC2)cc(OC)c1OC,-0.465
18,CCOc1ccccc1CN1CCN(c2ccccn2)CC1,-0.425
19,COc1ccc2nc(N=C(N)N)nc(C)c2c1,-0.185
20,CN1CCN(C(=O)c2ccccc2[N+](=O)[O-])CC1,-0.02

# Some of the entries so far, as tab-separated lines:
row	Structure (SMILES)	T3 sensor activation Q score
4	CCCNC(=O)Nc1ccc(C(=O)O)cc1	0.68
18	CCOc1ccccc1CN1CCN(c2ccccn2)CC1	-0.425

# Further entries follow.

row,Structure (SMILES),T3 sensor activation Q score
1,O=C(O)c1ccccc1Sc1ccccc1C(=O)O,-0.05
2,O=C1NC(c2ccccc2)C(=C(O)c2ccccc2)C1=O (stereo not given),-0.835
3,CC(=O)NCC1OCCc2ccccc21 (stereo not given),0.85
4,CCOc1ccccc1N1CCN(Cc2ccc(Br)s2)CC1,-0.155
5,COc1cc(OC)c(C(C)=O)c(OC)c1,0.42
6,CN(CC(=O)O)c1ccccc1C(=O)O,-0.945
7,CC(=Nc1ccccc1)Nc1ccccc1,-0.58
8,Cc1cccc(C)c1NC(=O)NC1CCCCC1,0.455
9,NNC(=O)c1n[nH]c2c1CCC2,0.925
10,CN(C)C1=C(Nc2ccc(F)c(F)c2)C(=O)c2ccccc2C1=O,-0.225
11,O=C(Nc1ccccc1)Nc1ccccc1C#Cc1ccccc1,-0.22
12,O=C(CCC1CCCC1)N1CCN(C(=O)c2cccs2)CC1,-0.16
13,CCOC(=O)N1CCN(CC(O)COc2ccc(Br)cc2)CC1 (stereo not given),0.645
14,C=CCSc1nc2sc3c(c2c(=O)n1-c1ccccc1)CCN(C)C3,-0.295
15,Cc1ccc(C)c(CN2CCC(O)CC2)c1,0.19
16,CCCNC(=O)N1c2ccccc2Sc2ccccc21,0.05
17,Cc1cccc(OCC(=O)Nc2cccc(C)c2C)c1,0.35
18,NNC(=O)COc1ccc(Cl)cc1Cl,0.185
19,Cc1cccc(C)c1NC(=O)CNc1ccccc1,-0.69
20,COc1ccc(CN2CCSCC2)c(OC)c1OC,0.615
